# Results deposited as PubChem BioAssay AID1259425 (University of Nebraska Medical Center, 2018)
# Screen: 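Seek colon cancer weak points whose silencing resembles KSR1 loss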 (primary screen)
# System: HCT116 human colon cancer cells
# Reagent: siRNA pool against human genes, 50 nM siRNA
# Measured: 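mRNA of six signature genes measured together by branched-DNA assay after 50 nM siRNA pool, blank removed, divided by geometric mean of two housekeeping genes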
# Scale: BNIP3L mRNA: higher = more BNIP3L transcript after knockdown; NDRG1 mRNA: higher = more NDRG1 transcript after knockdown
# In all, the deposit lists about 14,000 reagents; below is a random part of them. Reagents against one gene are numbered here. Not all columns of the deposit are shown. The record does not give: the time to read-out.
Gene,pool no.,"BNIP3L mRNA, set 1","NDRG1 mRNA, set 1"
ZFAND5 (zinc finger AN1-type containing 5),1,0.15,0.179
BACH1 (BTB domain and CNC homolog 1),1,0.151,0.156
CHST11 (carbohydrate sulfotransferase 11),1,0.126,0.444
SSTR2 (somatostatin receptor 2),1,0.0616,0.699
"POM121L1P (POM121 transmembrane nucleoporin like 1, pseudogene)",1,0.0805,0.241
"APCS (amyloid P component, serum)",1,0.0913,0.097
CREBL2 (cAMP responsive element binding protein like 2),1,0.0708,0.213
LDHC (lactate dehydrogenase C),1,0.249,0.153
IFNGR1 (interferon gamma receptor 1),1,0.0742,0.0727
PAFAH1B2,1,0.256,0.233
ECI1 (enoyl-CoA delta isomerase 1),1,0.0822,0.205
DDX47 (DEAD-box helicase 47),1,0.143,0.0821
CHRNB1 (cholinergic receptor nicotinic beta 1 subunit),1,0.0427,0.0499
PRELID3A (PRELI domain containing 3A),1,0.156,0.27
TNIP1 (TNFAIP3 interacting protein 1),1,0.185,0.207
PDXK (pyridoxal kinase),1,0.0938,0.282
PDXK (pyridoxal kinase),2,0.171,0.221
PDXK (pyridoxal kinase),3,0.243,0.136
HMGCLL1 (3-hydroxy-3-methylglutaryl-CoA lyase like 1),1,0.0893,0.224
PCSK5 (proprotein convertase subtilisin/kexin type 5),1,0.28,0.598
CHRNA6 (cholinergic receptor nicotinic alpha 6 subunit),1,0.0652,0.221
RPL23AP32 (ribosomal protein L23a pseudogene 32),1,0.495,0.388
ZKSCAN5 (zinc finger with KRAB and SCAN domains 5),1,0.058,0.165
JADE2 (jade family PHD finger 2),1,0.158,0.464
THBS3 (thrombospondin 3),1,0.162,0.139
TCHP (trichoplein keratin filament binding),1,0.0989,0.206
NFYA (nuclear transcription factor Y subunit alpha),1,0.214,0.132
"BPIFA4P (BPI fold containing family A member 4, pseudogene)",1,0.0848,0.274
CAMSAP3,1,0.105,0.543
CNNM3,1,0.087,0.049
ATP5PF (ATP synthase peripheral stalk subunit F6),1,0.0766,0.282
MED24 (mediator complex subunit 24),1,0.193,0.267
SCAMP2,1,0.228,0.186
MC4R (melanocortin 4 receptor),1,0.252,0.294
NPPA (natriuretic peptide A),1,0.082,0.182
CLNS1A (chloride nucleotide-sensitive channel 1A),1,0.0196,0.0629
S100PBP (S100P binding protein),1,0.119,0.172
DLL3 (delta like canonical Notch ligand 3),1,0.152,0.106
ATP7A (ATPase copper transporting alpha),1,0.11,0.293
RING1 (ring finger protein 1),1,0.119,0.104
SF3A1 (splicing factor 3a subunit 1),1,0.0352,0.224
CCL22 (C-C motif chemokine ligand 22),1,0.0613,0.477
ELAVL1 (ELAV like RNA binding protein 1),1,0.0626,0.134
TAS2R13 (taste 2 receptor member 13),1,0.172,0.219
GALNT7 (polypeptide N-acetylgalactosaminyltransferase 7),1,0.123,0.0787
SLC2A4,1,0.0953,0.15
"DICER1 (dicer 1, ribonuclease III)",1,0.14,0.502
USP42 (ubiquitin specific peptidase 42),1,0.0558,0.127
CDK18 (cyclin dependent kinase 18),1,0.207,0.336
"TMLHE (trimethyllysine hydroxylase, epsilon)",1,0.101,0.426

3 entries from above, arranged by “NDRG1 mRNA, set 1”, ascending:
Gene,pool no.,"BNIP3L mRNA, set 1","NDRG1 mRNA, set 1"
SCAMP2,1,0.228,0.186
MED24 (mediator complex subunit 24),1,0.193,0.267
ATP5PF (ATP synthase peripheral stalk subunit F6),1,0.0766,0.282
